Laboratory results: publication PMC7505474, “Toll-like receptor 4-mediated inflammation triggered by extracellular IFI16 is enhanced by lipopolysaccharide binding” (PLoS Pathogens, 2020)
Results are given in words; binding and its absence hold for the method and conditions named. In cells and extracts the contact can be indirect. Some binding calls cover weakened binding; strength is not graded here.

Protein sequences, listed by entry. Tags and fused reporters are not part of them. Lines headed by an entry give the natural chain unless they say otherwise; changes in a name come on top. Chains listed by the source or under a name are the forms on record and can include a tag or linker.
UniProt O00206: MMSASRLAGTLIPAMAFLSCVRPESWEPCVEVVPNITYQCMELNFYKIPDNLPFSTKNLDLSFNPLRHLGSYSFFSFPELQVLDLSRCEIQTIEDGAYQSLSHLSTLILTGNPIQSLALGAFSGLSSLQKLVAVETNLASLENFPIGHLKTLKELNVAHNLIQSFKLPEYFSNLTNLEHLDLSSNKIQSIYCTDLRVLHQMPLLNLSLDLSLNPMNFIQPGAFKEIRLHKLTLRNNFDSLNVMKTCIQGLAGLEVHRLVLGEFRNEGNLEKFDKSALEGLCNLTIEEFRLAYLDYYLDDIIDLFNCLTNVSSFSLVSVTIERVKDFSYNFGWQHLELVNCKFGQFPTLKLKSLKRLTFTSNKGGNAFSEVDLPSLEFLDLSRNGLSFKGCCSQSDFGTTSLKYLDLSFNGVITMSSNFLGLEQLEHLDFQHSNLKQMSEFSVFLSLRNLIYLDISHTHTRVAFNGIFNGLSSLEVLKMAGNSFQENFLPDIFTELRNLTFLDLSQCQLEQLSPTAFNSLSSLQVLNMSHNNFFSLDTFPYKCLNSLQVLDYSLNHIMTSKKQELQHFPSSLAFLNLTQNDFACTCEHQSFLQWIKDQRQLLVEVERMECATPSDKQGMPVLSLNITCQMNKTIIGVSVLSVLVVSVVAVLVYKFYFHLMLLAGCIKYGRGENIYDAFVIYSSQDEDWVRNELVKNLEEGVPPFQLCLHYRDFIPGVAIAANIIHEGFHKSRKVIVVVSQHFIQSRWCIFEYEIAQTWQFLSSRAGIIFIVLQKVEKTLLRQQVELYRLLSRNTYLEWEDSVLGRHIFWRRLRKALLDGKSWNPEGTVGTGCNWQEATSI
UniProt Q9Y6Y9: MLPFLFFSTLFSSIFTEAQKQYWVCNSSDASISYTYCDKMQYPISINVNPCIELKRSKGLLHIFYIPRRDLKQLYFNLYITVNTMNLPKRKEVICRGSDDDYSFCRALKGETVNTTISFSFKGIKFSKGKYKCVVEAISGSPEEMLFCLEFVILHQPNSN
human recombinant IFI16 protein (Q16666-2, form named): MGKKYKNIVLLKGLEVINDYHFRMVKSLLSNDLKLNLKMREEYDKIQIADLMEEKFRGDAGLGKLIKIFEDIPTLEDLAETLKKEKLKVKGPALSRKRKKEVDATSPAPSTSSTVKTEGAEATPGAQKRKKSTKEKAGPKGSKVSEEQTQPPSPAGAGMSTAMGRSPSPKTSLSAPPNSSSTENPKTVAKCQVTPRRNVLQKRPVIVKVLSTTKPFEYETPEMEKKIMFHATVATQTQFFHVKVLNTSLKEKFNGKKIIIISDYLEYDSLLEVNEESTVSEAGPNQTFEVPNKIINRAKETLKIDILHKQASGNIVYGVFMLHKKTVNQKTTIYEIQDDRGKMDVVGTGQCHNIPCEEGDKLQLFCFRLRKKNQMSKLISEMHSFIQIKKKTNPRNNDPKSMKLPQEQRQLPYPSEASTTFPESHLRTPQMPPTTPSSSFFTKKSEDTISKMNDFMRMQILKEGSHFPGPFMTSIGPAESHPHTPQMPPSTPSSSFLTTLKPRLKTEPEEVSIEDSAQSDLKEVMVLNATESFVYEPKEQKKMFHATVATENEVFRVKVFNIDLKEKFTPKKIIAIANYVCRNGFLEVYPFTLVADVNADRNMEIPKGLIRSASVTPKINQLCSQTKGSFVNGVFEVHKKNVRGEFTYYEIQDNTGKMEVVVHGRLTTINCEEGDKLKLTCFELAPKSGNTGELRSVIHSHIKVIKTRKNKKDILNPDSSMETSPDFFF

Molecular target: TLR4/MD2 receptor, endogenous in 786-O cells (human (endogenous in 786-O)) (UniProt O00206+Q9Y6Y9)
Assay: co-IP; 786-O cells stimulated for 1 h with recombinant IFI16 or IFI16/LPS-EB complex; 90 μg of RIPA total cell extract, untreated or DNase I-treated, incubated 1 h at RT with 2.5 μg anti-TLR4 antibody on protein G Dynabeads; blots for IFI16, TLR4 and MD2; only the binder purified

- binding: binds
Substance: human recombinant IFI16 protein (from UniProt Q16666-2 1-729)
